From paper PMC5520489
No constants are given. Whether binding was seen depends on the method and setting. For some of these results: Binding seen in cells or lysates may run through a third protein. Some results given as binding are weak or reduced against the parent protein; the word gives no strength. For some of these results: Sequences can lack the tags named with a protein.

The chains behind the UniProt entries cited, without tags or fusion partners.
UniProt Q00987: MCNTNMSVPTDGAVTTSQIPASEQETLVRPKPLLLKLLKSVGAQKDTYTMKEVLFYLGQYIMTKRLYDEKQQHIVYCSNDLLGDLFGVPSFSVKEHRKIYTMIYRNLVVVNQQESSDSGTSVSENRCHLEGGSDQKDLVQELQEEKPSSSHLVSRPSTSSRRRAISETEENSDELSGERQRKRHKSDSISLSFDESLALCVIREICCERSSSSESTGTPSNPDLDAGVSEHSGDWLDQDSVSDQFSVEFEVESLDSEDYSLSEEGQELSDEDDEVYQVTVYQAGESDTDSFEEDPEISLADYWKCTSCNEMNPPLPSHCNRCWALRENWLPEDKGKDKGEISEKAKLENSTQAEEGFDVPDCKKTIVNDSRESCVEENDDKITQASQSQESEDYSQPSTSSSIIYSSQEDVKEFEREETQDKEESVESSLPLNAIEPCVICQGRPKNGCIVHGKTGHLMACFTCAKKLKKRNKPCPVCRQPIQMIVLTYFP

How the values were obtained:
[1] = molecular target: T1, Flag-LZAP (LXXLL/leucine zipper-containing ARF-binding protein) (UniProt Q96JB5); assay: co-IP; U2OS cells transfected with Flag-LZAP with or without GFP-p53; lysed in RIPA buffer; LZAP precipitated with anti-Flag affinity agarose; blot with GFP and Flag antibodies
T1 sequence: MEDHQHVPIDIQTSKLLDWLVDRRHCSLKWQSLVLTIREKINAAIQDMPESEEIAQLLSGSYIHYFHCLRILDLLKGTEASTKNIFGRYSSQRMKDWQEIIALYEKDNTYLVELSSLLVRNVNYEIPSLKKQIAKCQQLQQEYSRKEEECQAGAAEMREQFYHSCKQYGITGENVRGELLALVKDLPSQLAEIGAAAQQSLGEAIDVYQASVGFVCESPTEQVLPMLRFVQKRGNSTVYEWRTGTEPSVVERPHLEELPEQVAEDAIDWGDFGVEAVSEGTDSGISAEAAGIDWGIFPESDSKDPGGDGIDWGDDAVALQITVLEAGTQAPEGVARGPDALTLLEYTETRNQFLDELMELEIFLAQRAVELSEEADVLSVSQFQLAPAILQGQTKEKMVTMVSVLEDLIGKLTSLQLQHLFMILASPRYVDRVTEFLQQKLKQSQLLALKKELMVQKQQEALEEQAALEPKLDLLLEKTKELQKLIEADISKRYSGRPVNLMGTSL

Recombinant LZAP [2] = molecular target: T2, Recombinant LZAP (UniProt Q96JB5); assay: co-IP; about 100 ng of each recombinant protein in PBS, 0.05% Triton X100, 100 mM NaCl, 0.05% BSA, 1 h at 4°C; precipitated with LZAP custom antiserum on Protein A/G agarose; blots for HDM2, LZAP, p53, GST; both purified
T2 sequence: T1 sequence

Recombinant LZAP [3] = molecular target: T2, Recombinant LZAP; assay: co-IP; as a2/a3 but in the presence of nutlin (HDM2 inhibitor); recombinant proteins; agarose beads conjugated with LZAP or p53 antibodies; blots for HDM2, LZAP, p53; both purified

binding [1] | binding (Recombinant LZAP [2]) | binding (Recombinant LZAP [3]) | Substance
binds | – | – | GFP-p53 (wild type) (from UniProt P04637 1-393)
– | binds | binds | Recombinant human GST-HDM2 (from UniProt Q00987 1-491)
– | binds | – | Recombinant human p53 (from UniProt P04637 1-393)
